One compound from EP0589039A1, “[…] DERIVATIVE AND PHARMACEUTICAL PREPARATION CONTAINING THE SAME” (Asahi Kasei Kogyo Kabushiki Kaisha, priority 1991, dated 1992) can be followed below.

Like-named read-outs stand apart in the source and are kept apart here.

One test has as its system osteoporosis model rats. In words: Inhibition of decrease in bone density in ovariectomized osteoporosis model rats. As to conditions: left femur, D = W/V, 400 µg/kg orally once a day for 4 months. In kind it is in vivo, Fisher rats. As to the method:
Effect of the compound of the present invention to inhibit decrease in the bone density was evaluated using osteoporosis model rats. Of 32 Fisher rats of 7 months old, 24 were subjected to ovariectomy and then divided into 3 groups of 8 rats each; a first group was used as pathological group (Group P), a second group was used as Tamoxifen-administered group (Group T) and a third group was used as compound 1-administered group (Group S). The remaining 8 rats were subjected to sham operation and used as a control group (Group C). […] After completion of the administration, the left side femur of each rat was excised to measure its volume (V) and dry weight (W) to calculate a bone density (D) based on a formula, D = W/V [formula] . […]

Test [1] concerns human breast cancer cell line MCF-7. In words: Growth inhibition of human breast cancer cell MCF-7 (Methylene Blue staining). In kind it is cell-based. The conditions noted are these: read-out: Growth inhibition of MCF-7 (human breast cancer cells) (IC₅₀). As to the method:
(Growth inhibition of human breast cancer cell MCF-7)
Effect of the compound of the present invention on breast cancer were examined using a human breast cancer cell line MCF-7. Predetermined dilutions of each compound of the present invention were added to a 96 well microtiter plate purchased from Falcon, and the cancer cells were inoculated into each well with a inoculum size of 10³ cells per well (10⁴ cells in the case of 100 nM estrogen (E)). The thus prepared plate was supplied with RPMI 1640 medium which has been supplemented with 5% of fetal bovine serum and further with a predetermined amount of estrogen, and incubated at 37°C for 6 days (3 days in the case of 100 nM estrogen) in the presence of 5% CO₂. Thereafter, viable cells were fixed with glutaraldehyde and stained with Methylene Blue to measure absorbance at 665 nm.

The subject of test [2] is human breast cancer cultured cell line ZR-75-1. In words: Growth inhibition of human breast cancer cultured cell line ZR-75-1 (Methylene Blue staining). Type of test: cell-based. As to conditions: 120 h, ZR-75-1, 10⁻⁹ mole of estrogen, 5 days, read-out: IC₅₀. As to the method: Effect of the triphenylalkene derivative of the present invention on breast cancer were examined using a human breast cancer cultured cell line ZR-75-1. Predetermined dilutions of each triphenylalkene derivative of the present invention were added to a 96 well microtiter plate purchased from Falcon, and the cancer cells were inoculated into each well with a inoculum size of 2 x 10³ cells per well. The thus prepared plate was supplied with RPMI 1640 medium which has been supplemented with 10% of fetal bovine serum and further with 10⁻⁹ mole of estrogen, and incubated at 37°C for 5 days in the presence of 5% CO₂. Thereafter, viable cells were fixed with glutaraldehyde, stained with Methylene Blue and then extracted with 0.33 N of hydrochloric acid to measure absorbance at 665 nm. A concentration which gives a value of 0.5 when an absorbance in a well containing no triphenylalkene derivative is taken as 1 was defined as IC₅₀, with the results shown in Table 3.

As to `CC/C(=C(\c1ccccc1)c1ccc(OCCN(C)C)cc1)c1ccccc1` [Tamoxifen, (Z)-2-[4-(1,2-diphenyl-1-butenyl)phenoxy]-N,N-dimethylethylamine, reference compound], the Bone density in the test with osteoporosis model rats was found to be 1.0214. The IC50 in test [1] (MCF7, 72 h, 100 nM added amount of E (estrogen), 3 days, 10⁴ cells per well) stood at 6.4 µM; in test [1] (MCF7, 144 h, 0.1 nM added amount of E (estrogen), 6 days) it was 1.85 µM; in test [2], 4 µM.
